Measured values as given in US11359178B2, “Method for producing parasympathetic neurons” (NATIONAL INSTITUTE OF ADVANCED INDUSTRIAL SCIENCE AND …, priority 2018, dated 2022).
For at least one compound, name, drawing or mass did not settle the structure.

Assays:
[1] = test system: autonomic neural progenitor cells; test: Induction of autonomic neural progenitor cells to differentiate into parasympathetic neurons, immune cell staining (TH, ChAT, PHOX2B, MAP2); format: cell-based, Human; conditions: 13th to 87th day
Experimental: A 24-well plate coated with poly-L-ornithine and laminin was prepared by the following procedure. The plate was coated for one hour with a PLO solution (20 μg/mL) prepared with DW, washed once with DW, and coated for two hours with a laminin solution (5 μg/mL) prepared with PBS. Subsequently, the N2 medium was supplemented with 10 μM FSK, 10 ng/mL BDNF, 10 ng/mL GDNF, 10 ng/mL NT-3, 10 ng/mL NGF, and 50 μg/mL Ascorbic Acid (all final concentrations) to prepare a neural differentiation medium (NDM).
The following four kinds of differentiation-inducing media were prepared using NDM:
Differentiation-inducing medium 1: NDM+10 ng/mL PMA (final concentration)
Differentiation-inducing medium 2: NDM+1 μM RA (final concentration) […]
The autonomic neural progenitor cells obtained by the above-described Step 5 were washed once with PBS, followed by addition of TrypLE Express Enzyme (250 μL/well), and cells were exfoliated by incubating the medium for five minutes. […] After the medium was centrifuged at 200×g for four minutes, the supernatant was removed, cells were suspended with NDM, and the cells were counted. […] The media cultured for at least 20 days from the start of culturing with the differentiation-inducing media 1 to 4 were analyzed by immune staining and intracellular calcium imaging following the procedure described below. […]

[2] = test system: cultured rat sympathetic neurons; conditions: Kobayashi et al. 1994; cited from earlier work

In the case of `CC1=C(/C=C/C(C)=C/C=C/C(C)=C/C(=O)O)C(C)(C)CCC1` [RA, Retinoic acid], the “ratio of TH positive cells and ChAT positive cells” value ([1]; immune staining) is listed as “No significant change”, the differentiation induction efficiency ([1]; single additive in NDM, compared with NDM only) is listed as “did not change” and the “expression level of tyrosine hydroxylase (TH)” value [2] is listed as “reduce”. For the same compound, the “expression of choline acetyltransferase (ChAT)” value [2] was “enhance”.
